Laboratory results from the supplement of paper PMC7024190.
Several values for one entry are separate records, joined by “and”; a condition that tells them apart may be missing. Identical values can stand only once. Counter-ions that a name gives are not always drawn. Some of the results follow. This data set is noisy: repeats of one test often differ as much as different tests do.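 Human embryonic kidney cells were transiently transfected with a plasmid bearing a Renilla luciferase gene under the HSV-TK promoter. This first-round screen tests roughly ten thousand compounds for ones that increase reporter output.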

System: HEK 293FT
Test: log relative Renilla luciferase luminescence (reporter expression vs reference, reference not stated) (log (base not stated)); higher = higher recombinant reporter expression
Settings: 10 µM; time after transfection 48 h

SMILES	log
CCCOc1ccc(Br)cc1-c1cc(-c2ccc(Cl)cc2)[nH]c1-c1ccncc1	-0.0778
CC(C)C[C@@H](C(=O)N[C@H](C(=O)OC1CCCC1)c1ccccc1)[C@H](O)C(=O)NO	0.0127
O=[N+]([O-])c1cc(Cl)ccc1S(=O)(=O)N1CCN(Cc2ccccc2)CC1	-1.15
COc1cc(/C=C(\C#N)C(N)=O)cc(CSc2nc3ccccc3s2)c1O	-0.0209
O=C(O)C1(C(=O)O)CCC1.[NH2-].[NH2-].[Pt+2] [Carboplatin]	-0.0758
CC(C(O)c1ccc(O)cc1)N1CCC(Cc2ccccc2)CC1 (centres undefined) [Ifenprodil hemitartrate]	-0.044
N#C/C(=C\c1ccc(O)c(O)c1)C(=O)Nc1ccccc1	0.0179
O=C(O)C=C1CCCc2ccccc2C1O (centres undefined)	0.00213
CC(C)C[C@H](NC(=O)N1CCCCCC1)C(=O)N[C@H](Cc1cn(C)c2ccccc12)C(=O)N[C@H](Cc1ccccn1)C(=O)O	0.116
NCC(O)(CS(=O)(=O)O)c1ccc(Cl)cc1 (centres undefined) [2-Hydroxysaclofen]	-0.732
NCCNC(=O)c1ccc(Cl)cn1 [Lazabemide hydrochloride]	-0.0566
O=C(O)c1ccc2cc(-c3ccc(O)c(C45CC6CC(CC(C6)C4)C5)c3)ccc2c1	0.0876
Cc1ccc(CC2(O)CCN(CCOc3ccc(O)cc3)CC2)cc1	-0.051
CCCCNC(=O)[C@@H]1Cc2ccccc2N1C(=O)[C@@H](N)CC [Butabindide oxalate]	0.026
COc1ccc2[nH]c(C(=O)c3ccccc3)cc2c1	0.0569
O=C1NC(=O)c2cc(Nc3ccccc3)c(Nc3ccccc3)cc21	0.0341
Cc1scc2c1N(C(=O)CN1CCN(C)CC1)c1ccccc1NC2=O [Telenzepine dihydrochloride]	0.0774
CC(CCCCC(=O)Nc1ccc(C(F)(F)F)cc1)NCCc1cnc[nH]1 (centres undefined) [HTMT dimaleate]	-0.0536
Clc1ccccc1CNCC1CCC(CNCc2ccccc2Cl)CC1 (centres undefined)	0.205
CNS(=O)(=O)Cc1ccc2[nH]cc(CCN(C)C)c2c1 [Sumatriptan succinate]	-0.056

SMILES	log
c1ccc(COCCCc2c[nH]cn2)cc1 [Proxyfan Oxalate]	0.031
CN1CCC[C@@H]1Cc1c[nH]c2ccc(CCS(=O)(=O)c3ccccc3)cc12 [Eletriptan hydrobromide]	0.188
O=C(Nc1ccccc1)N[C@@H]1C[C@@H](C(=O)O)Nc2cc(Cl)cc(Cl)c21	-0.0659
CCCCC[C@H](O)/C=C/[C@H]1[C@H](O)CC(=O)[C@@H]1C/C=C\CCCC(=O)O [Prostaglandin E2]	-0.0566
CCC(=O)NC1CCc2cccc(OC)c2C1 (centres undefined)	-0.0536
N[C@@H](Cn1ccc(=O)n(Cc2ccccc2C(=O)O)c1=O)C(=O)O	-0.0671 and 0.0683
CC1(C)Oc2ccc(C#N)cc2[C@H](N2CCCC2=O)[C@H]1O [Cromakalim]	0.00743
Cc1nn(-c2ccccc2)c(C)c1C=NN1CCN(Cc2ccccc2)CC1	0.0728
CCOc1cc(CC(=O)N[C@@H](CC(C)C)c2ccccc2N2CCCCC2)ccc1C(=O)O [Repaglinide]	-0.194
CCN(CC)CCCCC1CCN(CC(=O)N2c3ccccc3C(=O)Nc3cccnc32)CC1	-0.203
CC[C@@H]1C(=O)OC[C@@H]1Cc1cncn1C [Pilocarpine hydrochloride]	0.00106
COCCOC(=O)C1=C(C)NC(C)=C(C(=O)OC/C=C/c2ccccc2)C1c1cccc([N+](=O)[O-])c1 (centres undefined) [Cilnidipine]	-0.096
O=c1ncccn1[C@@H]1O[C@H](CO)[C@@H](O)[C@H]1O [Zebularine]	-0.0838
CC(C)NC[C@H](O)COc1ccc(CC(N)=O)cc1 [S-(-)-Atenolol]	0.1
O=C(C=Cc1ccccc1)NC(NC(=S)Nc1ccc(Cl)cc1)C(Cl)(Cl)Cl (centres undefined)	-0.0942
CC1CCN(CCCC(=O)c2ccc(F)cc2)CC1 [Melperone hydrochloride]	-0.00526
CCOC(=O)N1CCC(=C2c3ccc(Cl)cc3CCc3cccnc32)CC1 [Loratidine]	0.142
OC(c1ccccc1)C1CCN(CCc2ccccc2)CC1 (centres undefined)	-0.085
CC(C)[C@H](CO)Nc1nc(Nc2cccc(Cl)c2)c2ncn(C(C)C)c2n1 [Purvalanol A]	-0.0364
